Reference: ChEMBL document CHEMBL4673388, “Enhancing Antimicrobial Peptide Potency through Multivalent Presentation on Coiled-Coil Nanofibrils” (ACS Med Chem Lett, 2021)
Values after ≈ are worked out from the molar mass of the structure shown.

Test system: Escherichia coli
Experiment: Antibacterial activity against Escherichia coli ATCC 25922 assessed as inhibition of bacterial growth incubated for 16 to 20 hrs by microdilution method
Format: functional
Conditions: time 16-20 hrs

MIC: 11.4 µM (≈ 3.98 µg/mL)
Structure (SMILES): CC1(C)S[C@@H]2[C@H](NC(=O)[C@H](N)c3ccccc3)C(=O)N2[C@H]1C(=O)O [AMPICILLIN]
